PubChem BioAssay AID1224828 | NIAID | 2016
The deposit covers about 17,000 reagents; below is an unselected part. 762 of all reagents (4.5%) count as active. 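Active calls include both raised and lowered p65 entry, mostly lowered; wells with fewer than 50 cells lack a z-score.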 Raw values are not corrected between plates.

Purpose: 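Find genes required for NF-kappaB p65 moving into the nucleus after LPS in mouse macrophages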 (primary screen)
Cells: mouse RAW264.7 G9 macrophage reporter cells (GFP-p65, Tnf promoter-mCherry)
Reagent: siRNA pool against mouse genes, 100 nM
Timing: 2 days siRNA transfection, then 40 min LPS before fixation
Conditions: LPS (Salmonella minnesota R595) at 10 ng/ml
Measurement: 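Microscopy ratio of nuclear to perinuclear-ring GFP-p65 signal, scaled to the plate median; gene score is the average of two replicate robust z-scores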
Direction: p65 translocation robust z-score: higher = more nuclear NF-kappaB p65 after LPS than the plate median; nuclear/cytoplasmic p65 ratio: higher = more nuclear NF-kappaB p65
Hit rule: 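Called active when z exceeds 3.3 or falls under -1.56 (median of Tlr4 controls), giving activity score of at least 50; no calls for control wells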
Meaning of the calls: active = hit (p65 shift raised or lowered); inactive = no clear change

The opening 2 entries as a preview:
target | PubChem SID | p65 translocation robust z-score | nuclear/cytoplasmic p65 ratio, rep 1 | nuclear/cytoplasmic p65 ratio, rep 2 | low cell count flag | call
Pcdhb5 | SID315475988 | 1.92 | 1.66 | 1.7 | enough cells to score | inactive
Mrps10 | SID315472114 | -1.82 | 1.52 | 1.29 | enough cells to score | active

Main list, repeating the preview:
target | PubChem SID | p65 translocation robust z-score | nuclear/cytoplasmic p65 ratio, rep 1 | nuclear/cytoplasmic p65 ratio, rep 2 | low cell count flag | call
Pcdhb5 | SID315475988 | 1.92 | 1.66 | 1.7 | enough cells to score | inactive
Mrps10 | SID315472114 | -1.82 | 1.52 | 1.29 | enough cells to score | active
Vezt | SID315477901 | 0.42 | 1.67 | 1.74 | enough cells to score | inactive
Taldo1 | SID315469578 | -0.87 | 1.35 | 1.45 | enough cells to score | inactive
Olfml3 | SID315476184 | 1.27 | 1.95 | 1.68 | enough cells to score | inactive
Tas2r113 | SID315481858 | – | 1.33 | 1.23 | fewer than 50 cells per well; well left out of scoring | inactive
Ndufb5 | SID315472176 | -1.96 | 1.59 | 1.19 | enough cells to score | active
Nme2 | SID315468191 | -1.39 | 1.37 | 1.2 | enough cells to score | inactive
Cryz | SID315466154 | -1.06 | 1.36 | 1.22 | enough cells to score | inactive
Tmsb4x | SID315468789 | -0.32 | 1.37 | 1.12 | enough cells to score | inactive
Stk16 | SID315469502 | -0.7 | 1.44 | 1.29 | enough cells to score | inactive
Tirap | SID315477084 | -1.14 | 1.44 | 1.28 | enough cells to score | inactive
Pex2 | SID315468837 | -0.82 | 1.44 | 1.36 | enough cells to score | inactive
Or10ak16 | SID315480022 | 0.24 | 1.59 | 1.5 | enough cells to score | inactive
Zfp638 | SID315468216 | 1.17 | 1.85 | 1.74 | enough cells to score | inactive
Nfkbil1 | SID315468161 | -0.12 | 1.46 | 1.37 | enough cells to score | inactive
Csnk1a1 | SID315475922 | 0.56 | 1.76 | 1.47 | enough cells to score | inactive
Spatc1l | SID315475343 | 0.16 | 1.45 | 1.4 | enough cells to score | inactive
Krt42 | SID315473469 | 0.59 | 1.49 | 1.53 | enough cells to score | inactive
Clec18a | SID315481714 | 0.96 | 1.99 | 1.69 | enough cells to score | inactive
Pde6g | SID315468442 | 0.58 | 1.42 | 1.47 | enough cells to score | inactive
Pitpnm2 | SID315468929 | – | 1.57 | 2.66 | fewer than 50 cells per well; well left out of scoring | inactive
Stbd1 | SID315470956 | 1.43 | 1.71 | 1.82 | enough cells to score | inactive
Mgme1 | SID315474999 | -1.66 | 1.3 | 1.2 | enough cells to score | active
Scgb3a1 | SID315473598 | – | 1.2 | 0.993 | fewer than 50 cells per well; well left out of scoring | inactive
Gja4 | SID315466906 | -0.07 | 1.46 | 1.33 | enough cells to score | inactive
Timm13 | SID315470741 | – | 1.48 | 1.2 | fewer than 50 cells per well; well left out of scoring | inactive
Usp18 | SID315470329 | 0.29 | 1.5 | 1.59 | enough cells to score | inactive
Mepe | SID315476038 | 0.42 | 1.74 | 1.65 | enough cells to score | inactive
Jmy | SID315471806 | -0.33 | 1.46 | 1.43 | enough cells to score | inactive
Kap | SID315467557 | -0.16 | 1.57 | 1.37 | enough cells to score | inactive
Svopl | SID315481347 | – | 1.29 | 1.42 | fewer than 50 cells per well; well left out of scoring | inactive
4833432B22RIK | SID315482012 | – | 0 | 1.6 | fewer than 50 cells per well; well left out of scoring | inactive
Casc3 | SID315477382 | -0.69 | 1.42 | 1.75 | enough cells to score | inactive
Edaradd | SID315477298 | 0.58 | 1.59 | 1.4 | enough cells to score | inactive
Ascl3 | SID315471682 | -0.23 | 1.49 | 1.56 | enough cells to score | inactive
Rps26 | SID315470583 | -0.3 | 1.37 | 1.19 | enough cells to score | inactive
Smad2 | SID315467800 | 0.78 | 1.75 | 1.58 | enough cells to score | inactive
Mrps7 | SID315470810 | 0.5 | 1.88 | 1.66 | enough cells to score | inactive
Or14j9 | SID315479938 | 0.63 | 1.34 | 1.27 | enough cells to score | inactive
Or6f2 | SID315480184 | – | 1.33 | 1.19 | fewer than 50 cells per well; well left out of scoring | inactive
Tcf7l1 | SID315469616 | -0.83 | 1.35 | 1.45 | enough cells to score | inactive
Iftap | SID315473435 | -0.82 | 1.44 | 1.43 | enough cells to score | inactive
Sde2 | SID315477553 | -1.01 | 1.45 | 1.64 | enough cells to score | inactive
Ddx6 | SID315466297 | 0.93 | 1.62 | 1.49 | enough cells to score | inactive
Kbtbd3 | SID315473734 | 0.51 | 1.62 | 1.63 | enough cells to score | inactive
Cryba4 | SID315466142 | -1.3 | 1.32 | 1.2 | enough cells to score | inactive
Emilin1 | SID315476255 | -0.05 | 1.33 | 1.36 | enough cells to score | inactive
Sephs2 | SID315469452 | -0.37 | 1.36 | 1.33 | enough cells to score | inactive
Terf2 | SID315469663 | -0.18 | 1.49 | 1.58 | enough cells to score | inactive
Phka2 | SID315476872 | -0.3 | 1.79 | 1.22 | enough cells to score | inactive
Mmp16 | SID315467946 | -1.29 | 1.27 | 1.19 | enough cells to score | inactive
H2bc27 | SID315475561 | -1.47 | 1.58 | 1.35 | enough cells to score | inactive
Atg4b | SID315472542 | 0.96 | 1.75 | 1.64 | enough cells to score | inactive
Or8d6 | SID315480705 | 0.11 | 1.44 | 1.27 | enough cells to score | inactive
Slc25a23 | SID315472748 | 0.53 | 1.43 | 1.12 | enough cells to score | inactive
Dnajc3 | SID315481997 | -0.13 | 1.61 | 1.42 | enough cells to score | inactive
Ccdc82 | SID315472412 | – | 1.76 | 1.21 | fewer than 50 cells per well; well left out of scoring | inactive
4930599N23Rik | SID315475109 | – | 1.05 | 0.902 | fewer than 50 cells per well; well left out of scoring | inactive
